# Assay results taken from PMC2639639, “Identification of Three Classes of Heteroaromatic Compounds with Activity against Intracellular Trypanosoma cruzi by Chemical Library Screening” (PLoS Neglected Tropical Diseases, 2009).
# Columns and labels:
# HepG2 cells = assay: Cytotoxicity assay (Alamar Blue) on HepG2 cells; type: cell-based, human
# Experimental: (§1) Cells (NIH/3T3 or HepG2) were washed and plated at a density of 50,000 cells/well of 96-well plates in 200 µl and allowed to adhere for 3 h. Twenty-four hour assays were done in DMEM without phenol red supplemented with 10% FBS and Pen-Strep-Glut, while 4-day assays were done in the same medium containing 2% FBS. Drugs were added and mixed. After 1 or 4 days, 20 µl of Alamar Blue (Biosource, Invitrogen) was added. Plates were incubated for 4 h (HepG2) or 6 h (NIH/3T3) at 37°C and fluorescence was read using a Labsystems Fluoroskan II plate reader (excitation: 544 nm, emission: 590 nm) .
# (§2) To determine TC50 values, fluorescence was plotted against inhibitor concentration. TC50 was determined as the concentration at which cytotoxicity (fluorescence) was half that in the absence of inhibitor.
# NIH/3T3 cells = assay: Cytotoxicity assay (Alamar Blue) on NIH/3T3 cells; type: cell-based; settings: TC50 NIH/3T3 4 days / IC50 intracellular growth
# Experimental: as §1, §2
# [1] = tested on: T. cruzi (Tulahuen strain) expressing β-galactosidase; assay: T. cruzi growth inhibition assay (β-gal activity, infection of NIH/3T3 cells); type: cell-based, Trypanosoma cruzi
# Experimental: NIH/3T3 cells and parasites were harvested, washed once and resuspended in DMEM supplemented with 2% FBS and Pen-Strep-Glut. […] Different numbers of NIH/3T3 cells were seeded in 96-well plates. After 3 h, compounds were added at the indicated concentrations and mixed by pipetting. BZN tablets (Rochagan, Roche) dissolved in DMSO and 4 µM Amphotericin B solution (Sigma-Aldrich) were used as positive controls. Different numbers of T. cruzi parasites were added in a final volume of 200 µl/well. After 4 days, 50 µl of PBS containing 0.5% of the detergent NP40 and 100 µM Chlorophenol Red-β-D-galactoside (CPRG) (Fluka) were added. Plates were incubated at 37°C for 4 h and absorbance was read at 590 nm using a Tecan Spectra Mini plate reader.
# To calculate the Z′ factor, we used the formula described by Zhang et al.: Z′ = 1−[(3σc++3σc−) / |μc+−μc−|] where σc+ = standard deviation (SD) of positive control, σc− = SD of negative control, μc+ = mean of positive control, μc− = mean of negative control. Subsequently, the best ratio was used for all growth inhibition assays (50.000 cells and parasites, multiplicity of infection (MOI) 1∶1).
# To determine IC50 values, β-gal activity (Abs590) was plotted against compound concentration for each compound. The IC50 was determined as the concentration at which the activity (absorbance) was half that in the absence of compound. […]
SMILES,"Ratio of TC50 to IC50, HepG2 (HepG2 cells; 24 h (1 day))","Ratio of TC50 to IC50, HepG2 (HepG2 cells; 4 days) [fold]",Ratio of TC50 to IC50 (HepG2 cells at 24 h) (HepG2 cells; TC50 HepG2 24 h / IC50 intracellular growth),Ratio of TC50 to IC50 (HepG2 cells at 4 days) (HepG2 cells; TC50 HepG2 4 days / IC50 intracellular growth),Ratio of TC50 to IC50 (NIH/3T3 cells at 4 days) (NIH/3T3 cells),Increase in IC50 relative to PCH1 [1] [fold]
"O=C(Cn1cnc([N+](=O)[O-])n1)Nc1cc(Oc2cccc(C(F)(F)F)c2)cc([N+](=O)[O-])c1 [NT1, 2-(3-nitro-1H-1,2,4-triazol-1-yl)-N-{3-nitro-5-[3-(trifluoromethyl)phenoxy]phenyl}acetamide]",more than 150 fold,40,^*160×,^*40×,^*74×,
"O=C(NN=Cc1ccc(-c2cccc(Cl)c2Cl)o1)c1cccnc1 [PCH2, N′-{[5-(2,3-dichlorophenyl)-2-furyl]methylene}nicotinohydrazide]",,,,,,35
"O=C(NN=Cc1ccc(-c2cccc(Cl)c2Cl)o1)c1ccncc1 [PCH3, N′-{[5-(2,3-dichlorophenyl)-2-furyl]methylene}isonicotinohydrazide]",,,,,,> 200
